Assay results published in the supplement of paper PMC5949888.
± gives the standard deviation of the averaged measurements. Most values lie at the floor of the assay. Slopes are relative: functional sequences can read slightly below zero.

System: Saccharomyces cerevisiae PS128 hsf1 delta, HSF1(1-493) fusion
Test: growth estimate (transactivation domain function in HSF1 fusion, heat-shock survival) (a.u. (slope of normalised read count over time)); higher = stronger growth at 37°C, i.e. more transactivation activity
Details: library: random library

Substance	growth estimate
GIRRGRGKSIADRLYDLARR	< -0.25
LVSRGRSDNSMGLRRLRLY	< -0.25
VRT	< -0.25
AGLDPLYRRLRISRCHSMGV	< -0.25
PQRPSEDLVLYTFQSEFTSG	< -0.25
CSCDLATSAASGKFRSRHAK	< -0.25
DIVAEGETQFPGIWRAWTGP	< -0.25
RFELCTGL	< -0.25
ETSARPGASPEFYRITWDSA	< -0.25
VGGLRSETFPPASVESGVWP	< -0.25
KYRSRAAGTRQKAYQRQASA	< -0.25
SSPHLICSVRQVNHSIGFT	< -0.25
ARNYKSRPCKSLPRIYRRRT	< -0.25
INPSVTRLILWCLQHVGT	< -0.25
HEQQ	< -0.25
YFHTL	< -0.25
SFDRS	< -0.25
AVCALRYIELGYTRHTDVRL	< -0.25
RRFQKS	-0.25
PTVELCRLLP	< -0.25
VCNASDASGGQL	< -0.25
CSCGIDGRPCVRVGDVEKTG	< -0.25
HCTVPKMEPRKSALRRRCRD	< -0.25
PLSLALGYNPFSVIVQEGGG	< -0.25
TEDGSSTWGGYLSIR	< -0.25

Substance	growth estimate
KGLEWAHAG	< -0.25
SDRLWEWGRLGTGITAAYGS	< -0.25
QSLRDSVVKIRVGAG	< -0.25
LVHSM	-0.248
ISCWIL	< -0.25
SDTLNRGYI	< -0.25
ERCRQRPPAPGHIVRGDSYV	< -0.25
HACKAEAEEVEYGHRG	< -0.25
SAGLLARKHA	< -0.25
TGQ	-0.243
RIGIIEGTIQINYKFCFLLM	< -0.25
KNLIDRQFPPKGRAWGAI	< -0.25
RSKRLRDYPFRST	< -0.25
PVHEGSGGW	< -0.25
GRV	-0.211 ± 0.043
CGSLGVPRGTTTRLKVLMPR	< -0.25
VRGRTRPLTGY	< -0.25
HPSPVA	< -0.25
WRNNCGAVALNRSYEHNYEV	< -0.25
LRVWSRRRRFRYGTQLYLSW	< -0.25
FMIPSRWEYARDGAWSSRRI	< -0.25
LYLTFWLHVLLGRSWRHIMM	-0.24
QRLMTEHEEDYDRLWVR	< -0.25
SQQRKHRREAERICLNLTTD	< -0.25
HFIGIMSSSGIVRTTIQIML	< -0.25

Substance	growth estimate
SIYCPLDSIFFTGVGMILTL	< -0.25
SPST	< -0.25
TLGR	< -0.25
IDMICRSGDCY	< -0.25
QKIVTAERYRDGIEDVSELL	< -0.25
RTAAIF	< -0.25
SIRGGHFSPACMEHGMPTNA	< -0.25
LSPQMGARAQQRDAPAAYVC	< -0.25
TVGCSRRGW	< -0.25
PLPSRLRQTIE	< -0.25
LNKFR	< -0.25
RRIFIPRGFEGVRV	< -0.25
DSAARGGFLPSGLKRVRPLG	< -0.25
RRVLQYG	< -0.25
PSQGCLYKTLFPQMGLDMMV	< -0.25
NSRDRAEISSTTTWRGPNMG	-0.243
IRRARMTYHPGELTLFQLRE	< -0.25
LQVQPVVRAVRPSGLEGDWQ	< -0.25
FRG	< -0.25
VGKIGGSRGSKYTSDTGLV	< -0.25
FGRTFTLTYQRL	< -0.25
GTSGSHHA	< -0.25
ETRTTMGCSYLLGIISDTAL	< -0.25
PHWT	< -0.25
VRVVTDRRVVLAWSGP	< -0.25

Substance	growth estimate
ATG	< -0.25
AYA	< -0.25
HRQWLSFSIRMTRVNQYDQA	< -0.25
DYVNLVKGTTHLLRWQLRKS	< -0.25
SVTRIIAFQSIHQLDDARPA	-0.246
ADKFNFPGAYGEDMGSQHKA	< -0.25
RWDHALFHQLTRCPI	< -0.25
KTSVCTVSICRRAVLVVTYA	< -0.25
KEMRI	< -0.25
YQAM	< -0.25
NWESSVI	< -0.25
TLRS	< -0.25
RVRVQPFGFMIFRMSFAGND	< -0.25
NRIEGWFKGL	< -0.25
SKGWSTVPIRTCRTRKLGLA	< -0.25
FYRPLVSDGGIGPRAL	< -0.25
CRTEKRVEVAHHSTWILEIY	< -0.25
IPSFLG	< -0.25
KKMYDSTYCRVPSATRPYKT	< -0.25
SRSSRKVALRTSGKPIKASH	< -0.25
RDMGPGMRRPHMVAALFPRQ	< -0.25
RVLWGRAHHLVAGTKKL	< -0.25
QELKFGRKSFTGESSDVTSR	< -0.25
WVQ	< -0.25
QDPY	< -0.25

Reprinted at random: 4 entries already listed, in no set order.
Substance	growth estimate
RRFQKS	-0.25
RSKRLRDYPFRST	< -0.25
FGRTFTLTYQRL	< -0.25
RRVLQYG	< -0.25
